Measured values reported in ChEMBL document CHEMBL5308504, “Tm Shift (DSF) assay results for EUbOPEN Chemogenomics Library” (2023).

Amino acid sequences for entries named in this document (tags omitted).
UniProt P22607, whole entry, looked up: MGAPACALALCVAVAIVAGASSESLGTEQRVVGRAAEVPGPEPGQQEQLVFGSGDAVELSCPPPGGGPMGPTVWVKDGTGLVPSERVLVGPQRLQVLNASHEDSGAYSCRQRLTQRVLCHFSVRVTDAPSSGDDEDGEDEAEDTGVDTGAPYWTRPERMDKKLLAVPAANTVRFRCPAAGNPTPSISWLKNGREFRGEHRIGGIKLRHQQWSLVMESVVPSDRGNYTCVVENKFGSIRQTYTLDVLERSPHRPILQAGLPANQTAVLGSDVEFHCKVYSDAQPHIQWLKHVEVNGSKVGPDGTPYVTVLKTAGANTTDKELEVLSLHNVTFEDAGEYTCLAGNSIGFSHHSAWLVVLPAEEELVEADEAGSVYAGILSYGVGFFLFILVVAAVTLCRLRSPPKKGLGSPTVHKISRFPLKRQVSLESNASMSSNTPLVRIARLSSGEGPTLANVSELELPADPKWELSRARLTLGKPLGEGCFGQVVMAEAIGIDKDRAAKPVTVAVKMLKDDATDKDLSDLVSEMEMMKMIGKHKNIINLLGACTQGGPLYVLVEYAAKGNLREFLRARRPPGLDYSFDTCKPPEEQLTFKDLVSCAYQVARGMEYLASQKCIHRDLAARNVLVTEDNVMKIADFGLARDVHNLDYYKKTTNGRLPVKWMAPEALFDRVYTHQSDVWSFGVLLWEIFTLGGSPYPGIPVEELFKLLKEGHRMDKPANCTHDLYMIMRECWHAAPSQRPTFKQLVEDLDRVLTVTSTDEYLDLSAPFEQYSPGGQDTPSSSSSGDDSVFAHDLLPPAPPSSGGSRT

Experiments:
[1] = molecular target: T1, Peregrin (Homo sapiens) (UniProt P55201); conditions: Compound concentration 20.0 uM, Protein concentration 2.0 uM, Result type QC Liability
T1 sequence (whole entry): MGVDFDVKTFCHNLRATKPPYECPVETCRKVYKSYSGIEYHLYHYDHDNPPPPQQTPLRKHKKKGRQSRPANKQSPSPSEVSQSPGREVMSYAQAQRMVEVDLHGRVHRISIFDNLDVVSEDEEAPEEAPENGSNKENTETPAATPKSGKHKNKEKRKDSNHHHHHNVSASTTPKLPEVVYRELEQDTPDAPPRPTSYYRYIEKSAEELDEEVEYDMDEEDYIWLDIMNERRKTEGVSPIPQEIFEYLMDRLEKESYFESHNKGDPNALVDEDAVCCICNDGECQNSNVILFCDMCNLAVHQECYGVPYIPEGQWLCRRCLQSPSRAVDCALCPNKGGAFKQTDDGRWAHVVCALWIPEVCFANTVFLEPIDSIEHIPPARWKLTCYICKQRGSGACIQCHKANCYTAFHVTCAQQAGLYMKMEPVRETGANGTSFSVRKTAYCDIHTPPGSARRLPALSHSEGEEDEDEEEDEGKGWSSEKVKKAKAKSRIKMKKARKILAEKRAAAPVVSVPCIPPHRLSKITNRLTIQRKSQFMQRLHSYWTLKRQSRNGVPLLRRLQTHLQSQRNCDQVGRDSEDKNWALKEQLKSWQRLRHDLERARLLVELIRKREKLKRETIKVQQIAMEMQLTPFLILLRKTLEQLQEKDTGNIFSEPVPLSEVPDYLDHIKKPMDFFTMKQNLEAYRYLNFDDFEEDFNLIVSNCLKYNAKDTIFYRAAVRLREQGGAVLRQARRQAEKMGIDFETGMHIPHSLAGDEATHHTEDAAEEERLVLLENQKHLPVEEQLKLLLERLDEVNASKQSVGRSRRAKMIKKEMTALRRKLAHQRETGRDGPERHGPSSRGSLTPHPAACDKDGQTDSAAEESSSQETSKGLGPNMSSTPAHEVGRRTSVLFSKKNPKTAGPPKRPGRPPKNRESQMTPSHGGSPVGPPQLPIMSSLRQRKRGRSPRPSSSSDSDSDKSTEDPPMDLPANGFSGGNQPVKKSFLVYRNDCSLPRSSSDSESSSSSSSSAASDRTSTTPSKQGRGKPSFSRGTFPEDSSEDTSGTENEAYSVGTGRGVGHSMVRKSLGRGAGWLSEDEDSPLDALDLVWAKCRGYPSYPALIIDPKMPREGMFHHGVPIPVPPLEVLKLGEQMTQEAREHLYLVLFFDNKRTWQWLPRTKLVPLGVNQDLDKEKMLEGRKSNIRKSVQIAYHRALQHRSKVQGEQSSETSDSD

[2] = molecular target: Fibroblast growth factor receptor 3 (Homo sapiens) (UniProt P22607); conditions: Compound concentration 20.0 uM, Protein concentration 2.0 uM, Result type QC Liability

ΔTm [1]: -1.85 °C
ΔTm [2]: 0.95 °C
Structure (SMILES): C[C@@H]1C[C@H](N)C[C@H](c2ccncc2NC(=O)c2ccc(F)c(-c3c(F)cccc3F)n2)C1
